Results are given in words; binding and its absence hold for the method and conditions named. In cells and extracts the contact can be indirect. Some binding calls cover weakened binding; strength is not graded here.
Target: T1, Aurora kinase A (AURKA) (human (endogenous in COLO205 and HT29)) (UniProt O14965)
T1 sequence: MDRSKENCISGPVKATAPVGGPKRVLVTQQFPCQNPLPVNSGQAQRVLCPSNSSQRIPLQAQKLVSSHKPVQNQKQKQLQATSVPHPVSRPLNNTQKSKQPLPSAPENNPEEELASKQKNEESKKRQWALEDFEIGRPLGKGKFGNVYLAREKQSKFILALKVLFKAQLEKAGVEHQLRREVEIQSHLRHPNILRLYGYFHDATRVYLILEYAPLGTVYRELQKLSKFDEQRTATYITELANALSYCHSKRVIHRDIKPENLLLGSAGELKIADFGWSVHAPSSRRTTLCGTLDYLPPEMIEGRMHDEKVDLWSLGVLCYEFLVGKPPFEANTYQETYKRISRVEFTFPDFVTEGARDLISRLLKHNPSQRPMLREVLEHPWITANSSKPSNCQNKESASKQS
Test: co-IP; endogenous proteins; lysates of COLO205 and HT29 cells, untreated or treated with AT9283 (15 nM, 100 nM), in IP-RIPA buffer (1% Triton, 150 mM NaCl, 50 mM Tris/HCl, 1 mM EDTA); 700 ug lysate per sample; IP overnight at 4 °C with anti-pMKK3 or anti-Aurora A, Protein G PLUS-A agarose; blot for MKK3 and Aurora A

- binding: binds
B1: Mitogen activated protein kinase kinase 3 (MKK3) (protein, UniProt P46734 1-347)
chain: MESPASSQPASMPQSKGKSKRKKDLRISCMSKPPAPNPTPPRNLDSRTFITIGDRNFEVEADDLVTISELGRGAYGVVEKVRHAQSGTIMAVKRIRATVNSQEQKRLLMDLDINMRTVDCFYTVTFYGALFREGDVWICMELMDTSLDKFYRKVLDKNMTIPEDILGEIAVSIVRALEHLHSKLSVIHRDVKPSNVLINKEGHVKMCDFGISGYLVDSVAKTMDAGCKPYMAPERINPELNQKGYNVKSDVWSLGITMIEMAILRFPYESWGTPFQQLKQVVEEPSPQLPADRFSPEFVDFTAQCLRKNPAERMSYLELMEHPFFTLHKTKKTDIAAFVKEILGEDS

From publication PMC11334304
